Results: publication PMC7037731, “Synthesis, Anticancer Activity, and Preliminary Pharmacokinetic Evaluation of 4,4-Disubstituted Curcuminoid 2,2-bis(Hydroxymethyl)Propionate Derivatives” (Molecules, 2020)

Assay: Solubility in aqueous dosing vehicle
Format: physicochemical
Conditions: 5% ethanol, 10% Tween 80, 85% saline
Excerpt: Subsequently, the latter would be converted into glucuronide 22 and sulfate 23 through the phase II metabolism conjugation of hydrogenated products 18, 19, 20, and 21 via the phase I metabolic pathway (Scheme 6). To verify our assumptions, the preliminary pharmacokinetic evaluation of 2 was executed.

For COc1cc(/C=C/C(=O)CC(=O)/C=C/c2ccc(O)c(OC)c2)ccc1O [Curcumin, (1E,6E)-1,7-bis(4-hydroxy-3-methoxyphenyl)hepta-1,6-diene-3,5-dione], the “solubility in aqueous vehicle” value was “almost insoluble”.
